# Data as given in the supplement of paper PMC8728848.
# Some of the results follow.
# B1: Tp0751, 83732 (protein)
# chain: MSYYHHHHHHLESTSLYKKAGFQHGHVPPRRIPPHDTFGALPTAALPSNARDTAAHPSDTADNTSGSSTTTDPRSHGNAPPAPVGGAAQTHTQPPVQTAMRIALWNRATHGEQGALQHLLAGLWIQTEISPNSGDIHPLLFFDREHAEITFSRASVQEIFLVDSAHTHRKTVSFLTRNTAISSIRRRLEVTFESHEVIHVRAVEDVARLKIGSTSMWDGQYTRYHAGPASAPSP
# Columns and labels:
# Assay in all cases: glycan array binding signal (z-score within array); higher = stronger binding
# Conditions in all cases: glycan notation: IUPAC condensed, linker removed
# [1] = molecular target: Fuc(a1-2)Gal6S(b1-3)GlcNAc
# Procedure, shortened: (§1)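 The Consortium for Functional Glycomics database supplied 3228 glycan arrays, of which those lacking an available protein sequence were dropped. The binding signal, a within-array Z-score, was averaged across arrays of the same protein sequence and across linkers. Negative scores can be read as non-binding.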
# [2] = molecular target: Fuc(a1-2)Gal6S(b1-3)GlcNAc6S
# Procedure, shortened: as §1
# Fuc(a1-2)Gal6S(b1-4)Glc = molecular target: Fuc(a1-2)Gal6S(b1-4)Glc
# Procedure, shortened: as §1
# [3] = molecular target: Fuc(a1-2)Gal6S(b1-4)Glc6S
# Procedure, shortened: as §1
# Fuc(a1-2)[Gal(a1-3)]Gal = molecular target: Fuc(a1-2)[Gal(a1-3)]Gal
# Procedure, shortened: as §1
# [4] = molecular target: Fuc(a1-2)[Gal(a1-3)]Gal(b1-3)GalNAc
# Procedure, shortened: as §1
# [5] = molecular target: Fuc(a1-2)[Gal(a1-3)]Gal(b1-3)GalNAc(b1-3)Gal(a1-4)Gal(b1-4)Glc
# Procedure, shortened: as §1
# [6] = molecular target: Fuc(a1-2)[Gal(a1-3)]Gal(b1-3)GlcNAc
# Procedure, shortened: as §1
# [7] = molecular target: Fuc(a1-2)[Gal(a1-3)]Gal(b1-3)GlcNAc(b1-2)Man(a1-3)[Fuc(a1-2)[Gal(a1-3)]Gal(b1-3)GlcNAc(b1-2)Man(a1-6)]Man(b1-4)GlcNAc(b1-4)GlcNAc
# Procedure, shortened: as §1
# [8] = molecular target: Fuc(a1-2)[Gal(a1-3)]Gal(b1-3)GlcNAc(b1-2)Man(a1-3)[Fuc(a1-2)[Gal(a1-3)]Gal(b1-3)GlcNAc(b1-2)Man(a1-6)]Man(b1-4)GlcNAc(b1-4)[Fuc(a1-6)]GlcNAc
# Procedure, shortened: as §1
# [9] = molecular target: Fuc(a1-2)[Gal(a1-3)]Gal(b1-3)GlcNAc(b1-3)GalNAc
# Procedure, shortened: as §1
# [10] = molecular target: Fuc(a1-2)[Gal(a1-3)]Gal(b1-3)GlcNAc(b1-6)GalNAc
# Procedure, shortened: as §1
# [11] = molecular target: Fuc(a1-2)[Gal(a1-3)]Gal(b1-4)Glc
# Procedure, shortened: as §1
# [12] = molecular target: Fuc(a1-2)[Gal(a1-3)]Gal(b1-4)GlcNAc
# Procedure, shortened: as §1
# [13] = molecular target: Fuc(a1-2)[Gal(a1-3)]Gal(b1-4)GlcNAc(b1-2)Man
# Procedure, shortened: as §1
# [14] = molecular target: Fuc(a1-2)[Gal(a1-3)]Gal(b1-4)GlcNAc(b1-2)Man(a1-3)[Fuc(a1-2)[Gal(a1-3)]Gal(b1-4)GlcNAc(b1-2)Man(a1-6)]Man(b1-4)GlcNAc(b1-4)GlcNAc
# Procedure, shortened: as §1
# [15] = molecular target: Fuc(a1-2)[Gal(a1-3)]Gal(b1-4)GlcNAc(b1-2)Man(a1-3)[Fuc(a1-2)[Gal(a1-3)]Gal(b1-4)GlcNAc(b1-2)Man(a1-6)]Man(b1-4)GlcNAc(b1-4)[Fuc(a1-6)]GlcNAc
# Procedure, shortened: as §1
# [16] = molecular target: Fuc(a1-2)[Gal(a1-3)]Gal(b1-4)GlcNAc(b1-3)GalNAc
# Procedure, shortened: as §1
# [17] = molecular target: Fuc(a1-2)[Gal(a1-3)]Gal(b1-4)GlcNAc(b1-6)GalNAc
# Procedure, shortened: as §1
# [18] = molecular target: Fuc(a1-2)[Gal(a1-3)]Gal(b1-4)[Fuc(a1-3)]Glc
# Procedure, shortened: as §1
# [19] = molecular target: Fuc(a1-2)[Gal(a1-3)]Gal(b1-4)[Fuc(a1-3)]GlcNAc
# Procedure, shortened: as §1
# [20] = molecular target: Fuc(a1-2)[Gal(a1-3)]Gal(b1-4)[Fuc(a1-3)]GlcNAc(b1-3)GalNAc
# Procedure, shortened: as §1
# [21] = molecular target: Fuc(a1-2)[Gal(a1-4)]Gal(b1-4)GlcNAc
# Procedure, shortened: as §1
# [22] = molecular target: Fuc(a1-2)[GalNAc(a1-3)]Gal
# Procedure, shortened: as §1
# [23] = molecular target: Fuc(a1-2)[GalNAc(a1-3)]Gal(b1-3)GalNAc(a1-3)[Fuc(a1-2)]Gal(b1-4)GlcNAc
# Procedure, shortened: as §1
# [24] = molecular target: Fuc(a1-2)[GalNAc(a1-3)]Gal(b1-3)GalNAc(b1-3)Gal(a1-4)Gal(b1-4)Glc
# Procedure, shortened: as §1
# [25] = molecular target: Fuc(a1-2)[GalNAc(a1-3)]Gal(b1-3)GlcNAc
# Procedure, shortened: as §1
# [26] = molecular target: Fuc(a1-2)[GalNAc(a1-3)]Gal(b1-3)GlcNAc(b1-2)Man(a1-3)[Fuc(a1-2)[GalNAc(a1-3)]Gal(b1-3)GlcNAc(b1-2)Man(a1-6)]Man(b1-4)GlcNAc(b1-4)GlcNAc
# Procedure, shortened: as §1
# [27] = molecular target: Fuc(a1-2)[GalNAc(a1-3)]Gal(b1-3)GlcNAc(b1-2)Man(a1-3)[Fuc(a1-2)[GalNAc(a1-3)]Gal(b1-3)GlcNAc(b1-2)Man(a1-6)]Man(b1-4)GlcNAc(b1-4)[Fuc(a1-6)]GlcNAc
# Procedure, shortened: as §1
# [28] = molecular target: Fuc(a1-2)[GalNAc(a1-3)]Gal(b1-3)GlcNAc(b1-3)GalNAc
# Procedure, shortened: as §1
# [29] = molecular target: Fuc(a1-2)[GalNAc(a1-3)]Gal(b1-3)GlcNAc(b1-6)GalNAc
# Procedure, shortened: as §1
# [30] = molecular target: Fuc(a1-2)[GalNAc(a1-3)]Gal(b1-4)Glc
# Procedure, shortened: as §1
# [31] = molecular target: Fuc(a1-2)[GalNAc(a1-3)]Gal(b1-4)GlcNAc
# Procedure, shortened: as §1
# [32] = molecular target: Fuc(a1-2)[GalNAc(a1-3)]Gal(b1-4)GlcNAc(b1-2)Man
# Procedure, shortened: as §1
# [33] = molecular target: Fuc(a1-2)[GalNAc(a1-3)]Gal(b1-4)GlcNAc(b1-2)Man(a1-3)[Fuc(a1-2)[GalNAc(a1-3)]Gal(b1-4)GlcNAc(b1-2)Man(a1-6)]Man(b1-4)GlcNAc(b1-4)GlcNAc
# Procedure, shortened: as §1
# [34] = molecular target: Fuc(a1-2)[GalNAc(a1-3)]Gal(b1-4)GlcNAc(b1-2)Man(a1-3)[Fuc(a1-2)[GalNAc(a1-3)]Gal(b1-4)GlcNAc(b1-2)Man(a1-6)]Man(b1-4)GlcNAc(b1-4)[Fuc(a1-6)]GlcNAc
# Procedure, shortened: as §1
# [35] = molecular target: Fuc(a1-2)[GalNAc(a1-3)]Gal(b1-4)GlcNAc(b1-3)Gal(b1-4)GlcNAc
# Procedure, shortened: as §1
# [36] = molecular target: Fuc(a1-2)[GalNAc(a1-3)]Gal(b1-4)GlcNAc(b1-3)Gal(b1-4)GlcNAc(b1-3)Gal(b1-4)GlcNAc
# Procedure, shortened: as §1
# [37] = molecular target: Fuc(a1-2)[GalNAc(a1-3)]Gal(b1-4)GlcNAc(b1-3)GalNAc
# Procedure, shortened: as §1
# [38] = molecular target: Fuc(a1-2)[GalNAc(a1-3)]Gal(b1-4)GlcNAc(b1-3)[Fuc(a1-2)[GalNAc(a1-3)]Gal(b1-4)GlcNAc(b1-6)]GalNAc
# Procedure, shortened: as §1
# [39] = molecular target: Fuc(a1-2)[GalNAc(a1-3)]Gal(b1-4)GlcNAc(b1-6)GalNAc
# Procedure, shortened: as §1
# [40] = molecular target: Fuc(a1-2)[GalNAc(a1-3)]Gal(b1-4)[Fuc(a1-3)]GlcNAc
# Procedure, shortened: as §1
# [41] = molecular target: Fuc(a1-2)[GalNAc(a1-3)]Gal(b1-4)[Fuc(a1-3)]GlcNAc(b1-3)GalNAc
# Procedure, shortened: as §1
# [42] = molecular target: Fuc(a1-2)[GalNAc(a1-4)]Gal(b1-4)GlcNAc
# Procedure, shortened: as §1
# [43] = molecular target: Fuc(a1-2)[GalNAc(b1-3)]Gal
# Procedure, shortened: as §1
binder,measurement,setting,value
B1,glycan array binding signal (z-score),[1],-0.217
same,glycan array binding signal (z-score),[2],1.11
same,glycan array binding signal (z-score),Fuc(a1-2)Gal6S(b1-4)Glc,-0.154
same,glycan array binding signal (z-score),[3],-0.016
same,glycan array binding signal (z-score),Fuc(a1-2)[Gal(a1-3)]Gal,-0.156
same,glycan array binding signal (z-score),[4],0.425
same,glycan array binding signal (z-score),[5],-0.134
same,glycan array binding signal (z-score),[6],1.77
same,glycan array binding signal (z-score),[7],0.623
same,glycan array binding signal (z-score),[8],0.087
same,glycan array binding signal (z-score),[9],-0.668
same,glycan array binding signal (z-score),[10],0.819
same,glycan array binding signal (z-score),[11],0.399
same,glycan array binding signal (z-score),[12],0.066
same,glycan array binding signal (z-score),[13],-0.472
same,glycan array binding signal (z-score),[14],-0.106
same,glycan array binding signal (z-score),[15],-0.276
same,glycan array binding signal (z-score),[16],-0.513
same,glycan array binding signal (z-score),[17],1.24
same,glycan array binding signal (z-score),[18],-0.678
same,glycan array binding signal (z-score),[19],0.858
same,glycan array binding signal (z-score),[20],0.003
same,glycan array binding signal (z-score),[21],-0.764
same,glycan array binding signal (z-score),[22],-0.744
same,glycan array binding signal (z-score),[23],-0.003
same,glycan array binding signal (z-score),[24],-0.189
same,glycan array binding signal (z-score),[25],-0.672
same,glycan array binding signal (z-score),[26],-0.049
same,glycan array binding signal (z-score),[27],-0.442
same,glycan array binding signal (z-score),[28],-0.126
same,glycan array binding signal (z-score),[29],-0.716
same,glycan array binding signal (z-score),[30],-0.788
same,glycan array binding signal (z-score),[31],-0.68
same,glycan array binding signal (z-score),[32],-0.053
same,glycan array binding signal (z-score),[33],0.638
same,glycan array binding signal (z-score),[34],-0.219
same,glycan array binding signal (z-score),[35],-0.247
same,glycan array binding signal (z-score),[36],-0.232
same,glycan array binding signal (z-score),[37],-0.407
same,glycan array binding signal (z-score),[38],0.582
same,glycan array binding signal (z-score),[39],-0.13
same,glycan array binding signal (z-score),[40],0.025
same,glycan array binding signal (z-score),[41],-0.254
same,glycan array binding signal (z-score),[42],-0.599
same,glycan array binding signal (z-score),[43],-0.428
